These are yes or no findings as the source states them, for the method shown. Binding seen in cells or lysates may run through a third protein. Binding calls can cover weak binding; strength is not graded here.
Biological target: T1, BTB region of KCTD10 (truncated KCTD10 construct) (UniProt Q9H3F6)
T1 sequence: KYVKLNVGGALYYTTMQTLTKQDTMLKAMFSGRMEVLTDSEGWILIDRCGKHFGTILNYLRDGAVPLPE
Test: co-IP; cells transfected with 5 μg KCTD10 and β-catenin (full length or truncated), lysed after 30 h; immunoprecipitation with anti-Myc-tag or anti-HA-tag antibody and protein A/G beads, detection by HA-tag or Myc-tag

## Armadillo repeat region (1–9) of β-catenin (deletion construct) (domain or fragment)
  binding: binds

Reference: PMC12378768
